This passage reports binding results from patent US20160108128A1 (CANCER RESEARCH TECHNOLOGY, published 2016).

Protein sequences, listed by entry. Tags and fused reporters are not part of them. Lines headed by an entry give the natural chain unless they say otherwise; changes in a name come on top. Residues count along the entry.
UniProt Q9QXX0, residues 34-1218: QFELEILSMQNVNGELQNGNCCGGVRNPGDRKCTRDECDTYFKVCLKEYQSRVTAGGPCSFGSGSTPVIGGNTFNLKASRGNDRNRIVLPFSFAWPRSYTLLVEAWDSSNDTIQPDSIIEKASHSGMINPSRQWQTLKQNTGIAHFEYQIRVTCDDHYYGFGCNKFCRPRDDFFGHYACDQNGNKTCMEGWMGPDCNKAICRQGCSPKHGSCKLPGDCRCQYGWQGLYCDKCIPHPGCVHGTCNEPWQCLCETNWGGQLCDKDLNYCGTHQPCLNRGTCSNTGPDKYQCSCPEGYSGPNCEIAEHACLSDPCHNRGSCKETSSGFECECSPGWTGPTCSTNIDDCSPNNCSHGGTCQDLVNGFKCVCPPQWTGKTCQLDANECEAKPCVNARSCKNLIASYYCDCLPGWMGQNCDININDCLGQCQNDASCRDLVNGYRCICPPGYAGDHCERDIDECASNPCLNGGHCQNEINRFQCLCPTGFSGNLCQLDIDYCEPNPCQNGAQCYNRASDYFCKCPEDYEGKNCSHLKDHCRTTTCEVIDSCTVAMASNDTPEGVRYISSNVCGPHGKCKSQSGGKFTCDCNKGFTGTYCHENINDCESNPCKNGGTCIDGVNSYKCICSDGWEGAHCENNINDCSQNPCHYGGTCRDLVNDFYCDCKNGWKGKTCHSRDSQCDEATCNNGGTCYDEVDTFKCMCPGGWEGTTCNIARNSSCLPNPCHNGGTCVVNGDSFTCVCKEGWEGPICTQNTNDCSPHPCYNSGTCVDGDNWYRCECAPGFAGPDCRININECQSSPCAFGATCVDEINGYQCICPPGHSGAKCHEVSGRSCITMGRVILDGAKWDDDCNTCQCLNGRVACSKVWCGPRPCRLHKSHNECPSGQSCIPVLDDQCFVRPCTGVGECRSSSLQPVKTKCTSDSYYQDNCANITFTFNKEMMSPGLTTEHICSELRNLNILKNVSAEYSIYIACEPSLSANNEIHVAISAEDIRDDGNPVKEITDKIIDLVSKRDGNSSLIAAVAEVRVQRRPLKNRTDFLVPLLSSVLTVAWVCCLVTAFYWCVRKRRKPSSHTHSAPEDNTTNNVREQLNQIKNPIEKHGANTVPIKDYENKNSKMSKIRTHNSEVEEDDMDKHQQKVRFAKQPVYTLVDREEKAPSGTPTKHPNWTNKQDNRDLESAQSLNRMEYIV
UniProt P78504, residues 34-1218: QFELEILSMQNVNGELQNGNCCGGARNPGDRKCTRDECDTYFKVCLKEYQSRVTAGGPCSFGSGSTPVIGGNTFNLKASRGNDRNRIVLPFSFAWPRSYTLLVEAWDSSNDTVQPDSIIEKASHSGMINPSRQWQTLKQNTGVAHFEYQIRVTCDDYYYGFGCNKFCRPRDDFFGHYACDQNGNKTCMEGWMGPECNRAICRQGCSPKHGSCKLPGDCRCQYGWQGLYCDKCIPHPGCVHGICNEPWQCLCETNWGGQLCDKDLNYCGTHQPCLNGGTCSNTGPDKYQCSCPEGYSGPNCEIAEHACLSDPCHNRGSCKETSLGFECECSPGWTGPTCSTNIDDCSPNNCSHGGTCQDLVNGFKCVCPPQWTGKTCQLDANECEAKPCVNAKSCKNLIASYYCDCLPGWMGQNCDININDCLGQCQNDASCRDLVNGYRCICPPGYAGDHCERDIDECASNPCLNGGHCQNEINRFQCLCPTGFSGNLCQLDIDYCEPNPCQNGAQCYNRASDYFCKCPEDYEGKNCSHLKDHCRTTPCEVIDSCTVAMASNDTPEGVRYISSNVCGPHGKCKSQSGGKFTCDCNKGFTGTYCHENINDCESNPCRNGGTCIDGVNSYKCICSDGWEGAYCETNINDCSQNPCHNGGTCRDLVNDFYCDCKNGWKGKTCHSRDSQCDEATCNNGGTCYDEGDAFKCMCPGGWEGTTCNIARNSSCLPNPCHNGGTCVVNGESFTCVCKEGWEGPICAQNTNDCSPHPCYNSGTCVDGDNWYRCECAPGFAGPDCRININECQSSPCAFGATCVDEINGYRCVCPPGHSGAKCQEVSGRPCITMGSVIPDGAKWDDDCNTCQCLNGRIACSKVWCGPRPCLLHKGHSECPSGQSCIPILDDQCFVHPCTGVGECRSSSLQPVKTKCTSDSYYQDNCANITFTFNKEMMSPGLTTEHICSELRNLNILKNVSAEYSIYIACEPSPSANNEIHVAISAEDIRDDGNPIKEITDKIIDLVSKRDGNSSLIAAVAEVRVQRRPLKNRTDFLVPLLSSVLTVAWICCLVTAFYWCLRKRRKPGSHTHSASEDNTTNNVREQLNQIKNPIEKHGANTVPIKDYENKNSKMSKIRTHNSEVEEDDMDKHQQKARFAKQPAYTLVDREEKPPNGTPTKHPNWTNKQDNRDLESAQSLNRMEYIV
UniProt P46531: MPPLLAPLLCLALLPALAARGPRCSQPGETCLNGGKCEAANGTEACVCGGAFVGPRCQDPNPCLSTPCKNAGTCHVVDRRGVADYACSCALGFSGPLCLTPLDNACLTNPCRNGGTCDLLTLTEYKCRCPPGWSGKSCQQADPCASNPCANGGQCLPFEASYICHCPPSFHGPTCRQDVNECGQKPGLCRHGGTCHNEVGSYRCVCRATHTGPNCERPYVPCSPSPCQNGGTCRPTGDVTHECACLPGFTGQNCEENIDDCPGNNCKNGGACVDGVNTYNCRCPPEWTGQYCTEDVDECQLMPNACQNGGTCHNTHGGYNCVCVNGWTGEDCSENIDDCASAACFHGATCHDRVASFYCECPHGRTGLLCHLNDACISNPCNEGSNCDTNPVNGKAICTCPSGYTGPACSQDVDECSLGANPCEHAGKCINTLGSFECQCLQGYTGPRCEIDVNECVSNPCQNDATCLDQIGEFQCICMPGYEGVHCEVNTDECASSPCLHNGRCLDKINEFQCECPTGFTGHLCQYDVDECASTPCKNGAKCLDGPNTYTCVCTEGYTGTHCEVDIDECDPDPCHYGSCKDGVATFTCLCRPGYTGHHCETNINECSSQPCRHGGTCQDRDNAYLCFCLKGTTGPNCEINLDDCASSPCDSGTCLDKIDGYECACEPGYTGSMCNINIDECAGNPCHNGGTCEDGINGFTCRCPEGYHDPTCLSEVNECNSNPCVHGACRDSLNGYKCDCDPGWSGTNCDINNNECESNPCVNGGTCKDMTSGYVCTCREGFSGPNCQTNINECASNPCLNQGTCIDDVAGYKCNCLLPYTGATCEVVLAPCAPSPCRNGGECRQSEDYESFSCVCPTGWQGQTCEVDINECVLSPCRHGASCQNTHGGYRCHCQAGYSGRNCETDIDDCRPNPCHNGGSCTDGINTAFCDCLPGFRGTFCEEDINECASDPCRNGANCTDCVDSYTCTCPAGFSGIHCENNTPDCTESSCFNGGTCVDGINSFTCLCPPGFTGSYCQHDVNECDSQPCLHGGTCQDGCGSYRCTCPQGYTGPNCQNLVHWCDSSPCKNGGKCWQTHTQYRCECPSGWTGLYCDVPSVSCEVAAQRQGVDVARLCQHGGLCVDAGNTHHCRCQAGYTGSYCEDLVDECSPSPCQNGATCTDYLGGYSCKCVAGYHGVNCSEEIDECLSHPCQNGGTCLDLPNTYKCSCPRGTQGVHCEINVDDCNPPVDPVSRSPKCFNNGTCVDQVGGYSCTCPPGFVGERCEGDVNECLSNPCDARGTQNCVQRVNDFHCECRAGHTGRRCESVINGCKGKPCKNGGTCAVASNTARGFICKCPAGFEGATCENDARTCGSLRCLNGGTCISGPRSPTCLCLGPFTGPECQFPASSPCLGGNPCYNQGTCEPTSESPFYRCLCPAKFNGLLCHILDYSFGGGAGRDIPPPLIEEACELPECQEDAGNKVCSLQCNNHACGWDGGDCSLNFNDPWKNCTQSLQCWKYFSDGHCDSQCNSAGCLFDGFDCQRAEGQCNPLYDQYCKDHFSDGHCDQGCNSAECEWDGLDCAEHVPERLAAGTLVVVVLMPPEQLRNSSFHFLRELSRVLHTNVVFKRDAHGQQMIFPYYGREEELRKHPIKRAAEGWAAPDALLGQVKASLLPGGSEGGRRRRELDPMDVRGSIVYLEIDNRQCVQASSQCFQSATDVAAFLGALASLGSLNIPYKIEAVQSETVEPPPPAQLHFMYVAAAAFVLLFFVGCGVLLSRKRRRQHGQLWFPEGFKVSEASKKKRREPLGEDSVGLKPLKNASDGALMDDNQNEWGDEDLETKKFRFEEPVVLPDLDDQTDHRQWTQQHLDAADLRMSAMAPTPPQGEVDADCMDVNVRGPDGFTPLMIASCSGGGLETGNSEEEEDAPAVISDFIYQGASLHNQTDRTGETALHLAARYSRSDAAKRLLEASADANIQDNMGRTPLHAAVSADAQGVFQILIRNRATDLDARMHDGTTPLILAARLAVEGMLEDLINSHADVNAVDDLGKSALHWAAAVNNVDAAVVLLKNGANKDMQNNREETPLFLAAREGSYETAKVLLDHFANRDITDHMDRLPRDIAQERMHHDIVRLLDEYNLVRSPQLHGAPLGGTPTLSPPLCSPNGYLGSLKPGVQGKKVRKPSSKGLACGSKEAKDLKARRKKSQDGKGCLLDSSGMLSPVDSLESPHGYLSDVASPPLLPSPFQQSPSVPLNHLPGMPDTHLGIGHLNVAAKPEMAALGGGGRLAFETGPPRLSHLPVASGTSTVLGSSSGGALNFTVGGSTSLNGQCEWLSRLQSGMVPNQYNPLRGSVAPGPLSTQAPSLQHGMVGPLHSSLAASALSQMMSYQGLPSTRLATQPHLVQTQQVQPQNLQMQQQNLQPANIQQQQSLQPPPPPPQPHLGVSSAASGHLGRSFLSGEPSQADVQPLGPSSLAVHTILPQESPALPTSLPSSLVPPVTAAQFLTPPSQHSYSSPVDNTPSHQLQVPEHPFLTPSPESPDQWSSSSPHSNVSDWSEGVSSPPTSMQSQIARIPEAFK

Test [1] addresses murine Jagged 1, full length, on B16F10 cells (mouse) (UniProt Q9QXX0). In words: FACS, biotinylated N1-EGF11-13 on avidin-coated beads, B16F10 cells transfected with murine J1.
The target in test [2] is T1, human Jagged 1, full length, on cells (human, UniProt P78504 34-1218).
T1 construct: whole, on cells; the cell is named under assay; also called hJ1; J1
In words: FACS, biotinylated N1-EGF11-13 on avidin-coated beads, HEK293 cells transfected with human J1. Background: A flow cytometer gives signals particle by particle.

Results are given in words; binding and its absence hold for the method and conditions named. Binding can be weak; no strength is given.

As for “human Notch 1 EGF11-13 soluble recombinant protein (411-526) (from UniProt P46531) (receptor)”, the binding result in test [1] and in test [2] was “binds” throughout.
